From US20100056497A1, “AMIDE DERIVATIVE” (DAINIPPON SUMITOMO PHARMA CO., LTD, priority 2007, published 2010)
At least one structure is not confirmed: it was looked up by name or label, or the drawing left a doubt.

Target: T1, Recombinant human renin (Homo sapiens, UniProt P00797)
T1 sequence (P00797 67-406): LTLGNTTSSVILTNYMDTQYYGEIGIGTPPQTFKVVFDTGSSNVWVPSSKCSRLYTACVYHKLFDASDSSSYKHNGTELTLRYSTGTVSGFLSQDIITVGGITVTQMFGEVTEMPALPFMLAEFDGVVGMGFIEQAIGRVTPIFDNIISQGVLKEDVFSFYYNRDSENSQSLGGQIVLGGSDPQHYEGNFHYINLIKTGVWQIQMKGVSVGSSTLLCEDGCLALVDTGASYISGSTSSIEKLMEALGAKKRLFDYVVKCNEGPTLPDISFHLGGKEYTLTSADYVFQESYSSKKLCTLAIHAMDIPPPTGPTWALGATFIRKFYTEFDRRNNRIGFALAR
Test: In vitro renin inhibitory activity assay (fluorescence, FRET peptide substrate)
Assay type: biochemical
Settings: 37° C., one hour, substrate 4 μM, pH 7.4
Method: In Vitro Renin Inhibitory Activity Assay
Recombinant human renin (50 ng) was reacted in 0.1M BEPES buffer (pH 7.4) containing 0.1M NaCl, 1 mM EDTA and 0.1 mg/mL BSA together with a substrate and a test compound at 37° C. for one hour. As the substrate, Arg-Glu(EDANS)-Ile-His-Pro-Phe-His-Leu-Val-Ile-His-Thr-Lys(DABCYL)-Arg or DABCYL-γ-Abu-Ile-His-Pro-Phe-His-Leu-Val-Ile-His-Thr-EDANS was added in such an amount so that the final concentration thereof became 4 μM. The elevated fluorescence intensity at the exciting wavelength 340 nm and the fluorescence wavelength 500 nm was measured by a fluorescence plate reader. The concentration of a test compound to be needed to inhibit an enzyme activity in the presence of a test compound in plural concentrations by 50% was calculated as an IC50 value.
The amino acid sequence disclosed in Seq ID:1 is an amino acid sequence used in the renin inhibitory activity assay.
The amino acid sequence disclosed in Seq ID:2 is an amino acid sequence used in the renin inhibitory activity assay.

COCCCOc1cc(C(=O)N(C[C@H]2CCNC2)C(C)C)ccc1OC [Compound A, reference compound]
Human renin inhibitory activity IC50: 1600 nM
